Record: PubChem BioAssay AID1224826 (NIAID, 2016)
Purpose: 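Regulators of Tlr4 signalling leading to Tnf-alpha expression in macrophages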 (primary screen). System: RAW264.7 G9 macrophages from mouse bearing reporters for p65 (GFP) and the Tnf promoter (mCherry). Reagents: siRNA pool against mouse genes, 100 nM. Timing: 16 h of LPS stimulation, after 2 days of siRNA transfection. Conditions: bacterial lipopolysaccharide (Salmonella minnesota R595), 10 ng/ml. Measurement: 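Imaged Tnf reporter mCherry in nuclei, minus background, normalised per plate to the median and expressed as robust z-scores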. Direction: Tnf reporter robust z-score: higher = stronger Tnf promoter reporter signal after LPS; Tnf reporter intensity: higher = stronger Tnf promoter reporter signal. Active means: 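Called active when robust z-score is at most -1.3, matching the median of the Tlr4 knock-down control, or over 3; control wells and wells with under 50 cells never active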. Meaning of the calls: active = Tnf reporter clearly lowered or raised; inactive = no clear change in Tnf reporter.
Shown is a random part of about 17,000 deposited reagents. About 1,110 of all reagents (6.6%) were called active. 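Active means lowered or raised reporter signal; replicate intensities are raw and not normalised per plate.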

target gene | Tnf reporter robust z-score | fewer than 50 cells in well | Tnf reporter intensity, replicate 1 | Tnf reporter intensity, replicate 2 | call
5730596B20Rik | -1.1 | enough cells in well | 112 | 81.3 | inactive
Fhip1a | 0.24 | enough cells in well | 156 | 245 | inactive
Golt1b | 0.54 | enough cells in well | 182 | 54 | inactive
B4gat1 | -0.69 | enough cells in well | 219 | 49.1 | inactive
Nlrp9b | -2.12 | enough cells in well | 68.6 | 54.5 | active
Zfr | – | fewer than 50 cells per well; well left out of calls | 69.8 | 70.3 | inactive
Yipf6 | -0.49 | enough cells in well | 142 | 129 | inactive
Plcd3 | 0.58 | enough cells in well | 176 | 134 | inactive
Tmcc1 | -0.76 | enough cells in well | 132 | 100 | inactive
Prr14 | -0.26 | enough cells in well | 168 | 213 | inactive
Mre11a | -0.96 | enough cells in well | 205 | 117 | inactive
Tifab | 0.68 | enough cells in well | 250 | 259 | inactive
Or6c69c | 3.29 | enough cells in well | 259 | 182 | active
Sub1 | 0.63 | enough cells in well | 412 | 224 | inactive
Zfp46 | -1.1 | enough cells in well | 56.8 | 78.3 | inactive
Maoa | 0.21 | enough cells in well | 298 | 207 | inactive
5330438I03Rik | -0.54 | enough cells in well | 128 | 136 | inactive
Or2m12 | 2.16 | enough cells in well | 318 | 204 | inactive
Aldh9a1 | 0.24 | enough cells in well | 170 | 197 | inactive
Trappc2 | -0.02 | enough cells in well | 114 | 95.2 | inactive
Fosb | 0.01 | enough cells in well | 286 | 211 | inactive
Pthlh | -0.28 | enough cells in well | 176 | 215 | inactive
Naif1 | 0.6 | enough cells in well | 249 | 142 | inactive
Cdh4 | -0.26 | enough cells in well | 168 | 136 | inactive
Or2a5 | -0.89 | enough cells in well | 169 | 127 | inactive
Ano6 | 0.62 | enough cells in well | 128 | 126 | inactive
Tmem165 | – | fewer than 50 cells per well; well left out of calls | 82.7 | 55.7 | inactive
Gimap3 | 0.1 | enough cells in well | 197 | 137 | inactive
Sh3rf2 | 0.74 | enough cells in well | 129 | 124 | inactive
Clec2d | -0.76 | enough cells in well | 188 | 72.4 | inactive
Cd81 | -0.48 | enough cells in well | 204 | 134 | inactive
Or2ag2b | 1.93 | enough cells in well | 109 | 262 | inactive
Mprip | -0.95 | enough cells in well | 105 | 117 | inactive
Tfeb | 1.46 | enough cells in well | 324 | 215 | inactive
Mrpl3 | 2.27 | enough cells in well | 360 | 209 | inactive
Hdgfl3 | 0.11 | enough cells in well | 263 | 74.1 | inactive
Or8h10 | -0.89 | enough cells in well | 131 | 106 | inactive
Aqp3 | 0.05 | enough cells in well | 168 | 175 | inactive
Ptafr | -0.01 | enough cells in well | 258 | 91.6 | inactive
Cdk20 | 0.32 | enough cells in well | 107 | 173 | inactive
Lypd3 | – | fewer than 50 cells per well; well left out of calls | 123 | 70.3 | inactive
Adgre5 | 0.65 | enough cells in well | 237 | 404 | inactive
Tarbp2 | -0.75 | enough cells in well | 230 | 64.4 | inactive
Or8b54 | 1.4 | enough cells in well | 216 | 196 | inactive
Eif3c | – | fewer than 50 cells per well; well left out of calls | 44.4 | 54.7 | inactive
Msh6 | -0.25 | enough cells in well | 262 | 171 | inactive
Morc4 | -0.89 | enough cells in well | 133 | 93.9 | inactive
Serpina7 | 1.01 | enough cells in well | 190 | 223 | inactive
Pigv | 1.33 | enough cells in well | 281 | 227 | inactive
Sardh | 0.39 | enough cells in well | 343 | 236 | inactive
Or6c68 | – | fewer than 50 cells per well; well left out of calls | 117 | 73.2 | inactive
Or8b1c | 2.78 | enough cells in well | 202 | 213 | inactive
Or8b35 | 4.19 | enough cells in well | 282 | 227 | active
Adcy3 | 0.46 | enough cells in well | 252 | 203 | inactive
Eva1a | 0.08 | enough cells in well | 176 | 254 | inactive
Pkm | – | fewer than 50 cells per well; well left out of calls | 138 | 129 | inactive
Slc12a3 | 0.38 | enough cells in well | 246 | 162 | inactive
Scgb1b2 | 1.94 | enough cells in well | 287 | 265 | inactive
